Measurements published in the supplement of paper PMC5407854, “Inhibitor of ppGalNAc-T3-mediated O-glycosylation blocks cancer cell invasiveness and lowers FGF23 levels” (eLife, 2017).
This is one part of the list. Most entries show no effect beyond the scatter of the controls.

Tested on: ppGalNAc-T3 sensor
Assay: T3 sensor activation Q score (MG/GFP ratio z-score vs DMSO controls) (SD units); higher = more sensor activation (inhibition of ppGalNAc-T3 glycosylation)
Conditions: HEK293 sensor cells; 10 µM; 6 h
Method: (§1)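 Cells were treated with compound at 10 uM for 6 h, then MG/GFP ratio was read by flow cytometry (10,000 cells per well, duplicate wells). Q = (R - R_neg)/SD_neg relative to DMSO vehicle controls; the signal rises when the glycosyltransferase is inhibited.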

| Structure (SMILES) | T3 sensor activation Q score |
| --- | --- |
| Cc1ccc(C)c(N2CCN(Cc3ccc(C)s3)CC2)c1 | 1.22 |
| CCSc1cc(C)nc2ncnn12 | 0.39 |
| COc1ccc(C2NC(=O)C(=O)C2=C(O)c2ccccc2)cc1 (stereo not given) | -0.5 |
| CCN(CCN(C)C)Cc1ccccc1Cl | 0.175 |
| CCC1CCCCN1C1CC(=O)N(c2ccc(OC)cc2)C1=O (stereo not given) | 0.75 |
| CC1CN(CC(O)COc2ccccc2C(C)(C)C)CC(C)O1 (stereo not given) | -0.12 |
| CCOc1ccccc1N1CCN(Cc2ccc(Br)s2)CC1 | -0.155 |
| Cc1cccc(C)c1NC(=O)c1nccnc1C(=O)O | -0.28 |
| O=c1[nH]c2ccc(S(=O)(=O)NC3CCCC3)cc2[nH]1 | -0.66 |
| CN1CCCN(Cc2cccc(F)c2)CC1 | 1.45 |
| CCOc1ccc(-c2cnc3ccccc3n2)cc1 | 1.15 |
| Cc1ccc2nc(-c3ccc(Cl)cc3)cn2c1 | 0.005 |
| NNc1nc(Nc2ccccc2)nc(N2CCCCC2)n1 | 0.57 |
| Cc1cccn(CC(=O)c2ccc(-c3ccccc3)cc2)c1=N | 0.25 |
| CC(=O)Nc1cccc(C(=O)Nc2ccccc2Cl)c1 | -0.515 |
| O=C(COc1ccc(Cl)cc1Cl)N1CCCC1 | 1.42 |
| CCCSc1nnc2c(n1)[nH]c1ccccc12 | -0.515 |
| Cc1nc2ccc3[nH]snc3c2n1 | 0.12 |
| CC(=O)Nc1ccc(NC(=O)c2ccc(I)cc2)cc1 | -0.44 |
| Oc1ccccc1-c1nc(-c2ccccc2)no1 | -0.01 |

| Structure (SMILES) | T3 sensor activation Q score |
| --- | --- |
| COc1ccc(OC)c(NC(=O)C(c2ccccc2)c2ccccc2)c1 | 0.355 |
| CC(=O)C1=C(O)C(=O)N(CCO)C1c1ccc(C)cc1 (stereo not given) | 0.045 |
| COc1cc2nc(C)sc2cc1OC | 0.725 |
| COc1ccc(-c2nc3cc(C)ccc3o2)cc1N | 0.035 |
| CN(C)CCOC(c1ccccc1)c1ccc(Cl)cc1 (stereo not given) | 0.395 |
| O=C(O)c1ccc(C(=O)O)c(-c2ccccc2)c1 | 1.5 |
| CCN(CC)C(=O)C1CCCN(Cc2ccc(F)c(F)c2)C1 (stereo not given) | 0.3 |
| O=C1CC(=O)N(c2cccc(Cl)c2)N1 | 0.48 |
| CN1CCCN(Cc2ccc(F)cc2F)CC1 | -0.07 |
| Cc1ccc(S(=O)(=O)Nc2ccc(OC(C)C)cc2)cc1 | -0.22 |
| Cc1cccc(NC2=C(N(C)C)C(=O)c3ccccc3C2=O)c1 | 0.375 |
| O=C(N1CCCC1)N1c2ccccc2Sc2ccccc21 | 0.01 |
| COc1ccccc1N1CCN(Cc2ccc(OC)c(C)c2OC)CC1 | 0.33 |
| Cc1ccccc1NC1=C(N2CCOCC2)C(=O)c2ccccc2C1=O | -0.535 |
| O=C(Nc1ccccc1)Nc1cccc(Cl)c1 | 0.91 |
| Cc1cccc(C(=O)Nc2ccccc2C(N)=O)c1 | -0.16 |
| COc1ccccc1N1CCN(C(=O)c2cccs2)CC1 | -0.09 |
| NC(CC(O)c1ccc([N+](=O)[O-])cc1)C(Cl)(Cl)Cl (stereo not given) | -0.405 |
| OC1CCN(Cc2ccc(Br)s2)CC1 | -0.285 |
| Cc1ccccc1N1CCN(Cc2ccc(Br)o2)CC1 | 0.265 |

Tested on: ppGalNAc-T2 sensor
Assay: T2 sensor activation Q score (MG/GFP ratio z-score vs DMSO controls) (SD units); higher = more sensor activation (inhibition of ppGalNAc-T2 glycosylation)
Conditions: HEK293 sensor cells; 10 µM; 6 h
Method: as §1

| Structure (SMILES) | T2 sensor activation Q score |
| --- | --- |
| Cc1ccc(C)c(N2CCN(Cc3ccc(C)s3)CC2)c1 | -0.515 |
| CCSc1cc(C)nc2ncnn12 | 2.29 |
| COc1ccc(C2NC(=O)C(=O)C2=C(O)c2ccccc2)cc1 (stereo not given) | 0.135 |
| CCN(CCN(C)C)Cc1ccccc1Cl | 0.82 |
| CCC1CCCCN1C1CC(=O)N(c2ccc(OC)cc2)C1=O (stereo not given) | -0.665 |
| CC1CN(CC(O)COc2ccccc2C(C)(C)C)CC(C)O1 (stereo not given) | -0.76 |
| CCOc1ccccc1N1CCN(Cc2ccc(Br)s2)CC1 | -0.405 |
| Cc1cccc(C)c1NC(=O)c1nccnc1C(=O)O | -1.84 |
| O=c1[nH]c2ccc(S(=O)(=O)NC3CCCC3)cc2[nH]1 | 0.05 |
| CN1CCCN(Cc2cccc(F)c2)CC1 | 0.055 |
| CCOc1ccc(-c2cnc3ccccc3n2)cc1 | -1.04 |
| Cc1ccc2nc(-c3ccc(Cl)cc3)cn2c1 | -1.3 |
| NNc1nc(Nc2ccccc2)nc(N2CCCCC2)n1 | -0.305 |
| Cc1cccn(CC(=O)c2ccc(-c3ccccc3)cc2)c1=N | 0.3 |
| CC(=O)Nc1cccc(C(=O)Nc2ccccc2Cl)c1 | -0.3 |
| O=C(COc1ccc(Cl)cc1Cl)N1CCCC1 | -0.175 |
| CCCSc1nnc2c(n1)[nH]c1ccccc12 | -0.425 |
| Cc1nc2ccc3[nH]snc3c2n1 | -0.29 |
| CC(=O)Nc1ccc(NC(=O)c2ccc(I)cc2)cc1 | 0.165 |
| Oc1ccccc1-c1nc(-c2ccccc2)no1 | -0.7 |

| Structure (SMILES) | T2 sensor activation Q score |
| --- | --- |
| COc1ccc(OC)c(NC(=O)C(c2ccccc2)c2ccccc2)c1 | -0.14 |
| CC(=O)C1=C(O)C(=O)N(CCO)C1c1ccc(C)cc1 (stereo not given) | 0.31 |
| COc1cc2nc(C)sc2cc1OC | -0.345 |
| COc1ccc(-c2nc3cc(C)ccc3o2)cc1N | -0.295 |
| CN(C)CCOC(c1ccccc1)c1ccc(Cl)cc1 (stereo not given) | 0.99 |
| O=C(O)c1ccc(C(=O)O)c(-c2ccccc2)c1 | -0.49 |
| CCN(CC)C(=O)C1CCCN(Cc2ccc(F)c(F)c2)C1 (stereo not given) | 0.27 |
| O=C1CC(=O)N(c2cccc(Cl)c2)N1 | 0.76 |
| CN1CCCN(Cc2ccc(F)cc2F)CC1 | 0.065 |
| Cc1ccc(S(=O)(=O)Nc2ccc(OC(C)C)cc2)cc1 | -1.98 |
| Cc1cccc(NC2=C(N(C)C)C(=O)c3ccccc3C2=O)c1 | 0.11 |
| O=C(N1CCCC1)N1c2ccccc2Sc2ccccc21 | -0.86 |
| COc1ccccc1N1CCN(Cc2ccc(OC)c(C)c2OC)CC1 | -0.695 |
| Cc1ccccc1NC1=C(N2CCOCC2)C(=O)c2ccccc2C1=O | -0.565 |
| O=C(Nc1ccccc1)Nc1cccc(Cl)c1 | -0.905 |
| Cc1cccc(C(=O)Nc2ccccc2C(N)=O)c1 | -0.185 |
| COc1ccccc1N1CCN(C(=O)c2cccs2)CC1 | -0.395 |
| NC(CC(O)c1ccc([N+](=O)[O-])cc1)C(Cl)(Cl)Cl (stereo not given) | 1.06 |
| OC1CCN(Cc2ccc(Br)s2)CC1 | 1.14 |
| Cc1ccccc1N1CCN(Cc2ccc(Br)o2)CC1 | 0.155 |
